Patent US20160264664A1
Results are given in words; binding and its absence hold for the method and conditions named. Some entries that bind do so weakly or less than the wild type.

Experiments:
[1] = target: T1, mouse P2X7 (mouse) (UniProt Q9Z1M0); assay: flow cytometry dot plots (sideward scatter against anti-myc-FITC), periplasmic extract on mixed Hek293-mP2X7 and untransfected Hek293 cells
T1 sequence: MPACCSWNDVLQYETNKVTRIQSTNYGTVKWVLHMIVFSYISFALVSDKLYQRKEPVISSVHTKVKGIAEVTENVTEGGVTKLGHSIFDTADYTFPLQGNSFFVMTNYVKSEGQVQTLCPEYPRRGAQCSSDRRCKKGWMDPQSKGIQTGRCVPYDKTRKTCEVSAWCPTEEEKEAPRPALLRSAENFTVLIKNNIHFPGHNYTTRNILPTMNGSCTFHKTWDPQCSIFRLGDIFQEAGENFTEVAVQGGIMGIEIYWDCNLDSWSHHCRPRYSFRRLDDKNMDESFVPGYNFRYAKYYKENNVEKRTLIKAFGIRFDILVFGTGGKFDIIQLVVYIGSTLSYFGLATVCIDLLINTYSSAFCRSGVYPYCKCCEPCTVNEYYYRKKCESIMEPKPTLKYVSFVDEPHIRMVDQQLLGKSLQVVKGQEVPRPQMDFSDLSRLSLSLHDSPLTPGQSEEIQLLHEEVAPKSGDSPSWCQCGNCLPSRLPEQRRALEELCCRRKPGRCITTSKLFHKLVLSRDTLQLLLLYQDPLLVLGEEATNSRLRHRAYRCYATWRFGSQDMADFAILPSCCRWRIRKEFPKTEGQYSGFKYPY

[2] = target: T1, mouse P2X7 (mouse); assay: Table A-1 'P2X7 function'; screening on mP2X7-expressing cells

binding [1]: binds
binding [2]: binds
B1: P2X7PMP5A1 (VHH)
VHH: EVQLVESGGGLVQAGGSLRLSCAASERTYSMGWFRQAPGKEREFVAGSGWDGIPTRYADSVKGRLTISRDNAKNTVSLQMSGLKPEDTAIYYCATGTSVYHYQYWGQGTQVTVSS
